Experimental data as given in the supplement of paper PMC12823440, “Inhibitors supercharge kinase turnover through native proteolytic circuits” (Nature, 2025).
Where a name gives a salt, the structure may show the parent alone. The list shows a part of the results. The calls rarely recur for the same compound in another form.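 Kinases were expressed as nanoluciferase fusions in K562 cells and luminescence was read every 4 h between 2 and 18 h as percent of control, DMSO set to 100% and a positive control to 0%. A time point counts as decreased when the signal drops significantly (2 sigma). The hit call is the authors' own, does not follow from the count of time points alone, and its rule is not shown.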

Protein sequences, listed by entry. Tags and fused reporters are not part of them. Lines headed by an entry give the natural chain unless they say otherwise; changes in a name come on top.
UniProt Q15208: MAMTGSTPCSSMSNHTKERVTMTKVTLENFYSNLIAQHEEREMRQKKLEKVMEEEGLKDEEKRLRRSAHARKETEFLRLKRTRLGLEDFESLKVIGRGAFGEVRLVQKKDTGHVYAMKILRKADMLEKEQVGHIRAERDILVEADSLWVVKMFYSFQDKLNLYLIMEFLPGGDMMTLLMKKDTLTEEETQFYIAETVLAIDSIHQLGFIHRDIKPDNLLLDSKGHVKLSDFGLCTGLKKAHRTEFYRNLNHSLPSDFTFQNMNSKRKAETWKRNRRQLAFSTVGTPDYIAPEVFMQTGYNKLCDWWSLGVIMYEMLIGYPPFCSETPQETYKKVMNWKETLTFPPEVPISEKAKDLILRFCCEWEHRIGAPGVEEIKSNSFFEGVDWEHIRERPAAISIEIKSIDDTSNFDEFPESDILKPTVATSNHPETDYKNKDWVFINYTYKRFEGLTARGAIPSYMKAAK
UniProt P42680: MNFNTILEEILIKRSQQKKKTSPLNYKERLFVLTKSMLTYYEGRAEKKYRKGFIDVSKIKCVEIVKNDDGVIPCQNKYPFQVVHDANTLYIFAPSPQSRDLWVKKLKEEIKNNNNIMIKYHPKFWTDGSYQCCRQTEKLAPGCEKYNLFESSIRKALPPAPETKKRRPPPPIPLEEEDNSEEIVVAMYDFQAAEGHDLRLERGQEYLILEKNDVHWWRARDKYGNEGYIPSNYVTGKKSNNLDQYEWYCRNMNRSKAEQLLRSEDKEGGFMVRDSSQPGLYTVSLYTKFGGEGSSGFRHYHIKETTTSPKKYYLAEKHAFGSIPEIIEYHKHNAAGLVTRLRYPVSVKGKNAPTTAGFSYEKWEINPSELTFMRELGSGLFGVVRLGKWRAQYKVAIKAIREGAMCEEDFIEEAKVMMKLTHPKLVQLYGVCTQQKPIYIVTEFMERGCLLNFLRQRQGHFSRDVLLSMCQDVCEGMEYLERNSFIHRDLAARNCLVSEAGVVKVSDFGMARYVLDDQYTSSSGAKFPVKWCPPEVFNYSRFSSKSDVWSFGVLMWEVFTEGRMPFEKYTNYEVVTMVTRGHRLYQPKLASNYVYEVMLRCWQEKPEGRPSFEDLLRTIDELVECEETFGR
UniProt P29597: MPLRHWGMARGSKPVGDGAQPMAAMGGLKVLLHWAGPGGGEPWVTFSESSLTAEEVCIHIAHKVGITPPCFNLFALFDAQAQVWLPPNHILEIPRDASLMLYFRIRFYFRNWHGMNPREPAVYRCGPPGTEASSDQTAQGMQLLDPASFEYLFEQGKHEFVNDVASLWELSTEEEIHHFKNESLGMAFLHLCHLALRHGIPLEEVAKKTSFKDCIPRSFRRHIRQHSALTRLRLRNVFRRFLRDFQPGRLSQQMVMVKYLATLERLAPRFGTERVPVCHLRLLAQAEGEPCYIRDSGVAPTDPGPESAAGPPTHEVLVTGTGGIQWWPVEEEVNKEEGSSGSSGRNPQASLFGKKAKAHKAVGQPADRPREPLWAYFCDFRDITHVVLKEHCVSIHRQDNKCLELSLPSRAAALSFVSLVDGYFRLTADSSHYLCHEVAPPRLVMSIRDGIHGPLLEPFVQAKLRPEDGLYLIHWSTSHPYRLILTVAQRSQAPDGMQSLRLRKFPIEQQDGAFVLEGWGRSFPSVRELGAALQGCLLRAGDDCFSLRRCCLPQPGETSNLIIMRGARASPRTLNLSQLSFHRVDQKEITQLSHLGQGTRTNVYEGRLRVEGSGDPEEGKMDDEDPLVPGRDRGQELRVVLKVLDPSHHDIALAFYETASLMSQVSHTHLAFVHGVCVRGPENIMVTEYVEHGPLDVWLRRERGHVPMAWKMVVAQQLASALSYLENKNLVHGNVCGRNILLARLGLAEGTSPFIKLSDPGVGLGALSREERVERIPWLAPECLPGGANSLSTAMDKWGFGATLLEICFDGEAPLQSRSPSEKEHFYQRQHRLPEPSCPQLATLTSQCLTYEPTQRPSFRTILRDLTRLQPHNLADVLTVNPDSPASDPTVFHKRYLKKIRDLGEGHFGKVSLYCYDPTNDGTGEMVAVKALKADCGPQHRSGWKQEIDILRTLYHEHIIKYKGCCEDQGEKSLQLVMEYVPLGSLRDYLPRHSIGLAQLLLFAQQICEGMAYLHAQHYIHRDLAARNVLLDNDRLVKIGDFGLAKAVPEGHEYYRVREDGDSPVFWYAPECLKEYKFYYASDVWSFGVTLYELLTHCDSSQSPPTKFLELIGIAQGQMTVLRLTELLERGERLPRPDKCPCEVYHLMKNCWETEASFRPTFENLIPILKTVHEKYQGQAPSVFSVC
UniProt Q6PHR2: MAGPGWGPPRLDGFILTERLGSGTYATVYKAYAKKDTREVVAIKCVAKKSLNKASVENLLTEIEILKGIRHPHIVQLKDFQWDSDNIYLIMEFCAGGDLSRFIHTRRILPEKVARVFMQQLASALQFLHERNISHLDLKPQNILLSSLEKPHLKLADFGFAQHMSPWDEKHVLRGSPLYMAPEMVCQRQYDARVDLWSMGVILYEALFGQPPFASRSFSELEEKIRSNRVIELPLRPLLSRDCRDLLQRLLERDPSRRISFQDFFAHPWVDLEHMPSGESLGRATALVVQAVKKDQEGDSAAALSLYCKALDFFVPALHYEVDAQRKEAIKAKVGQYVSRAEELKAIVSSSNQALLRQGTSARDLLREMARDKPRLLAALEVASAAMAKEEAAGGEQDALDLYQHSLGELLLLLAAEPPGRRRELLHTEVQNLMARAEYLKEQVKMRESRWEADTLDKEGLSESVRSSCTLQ
UniProt P07947, whole entry, looked up: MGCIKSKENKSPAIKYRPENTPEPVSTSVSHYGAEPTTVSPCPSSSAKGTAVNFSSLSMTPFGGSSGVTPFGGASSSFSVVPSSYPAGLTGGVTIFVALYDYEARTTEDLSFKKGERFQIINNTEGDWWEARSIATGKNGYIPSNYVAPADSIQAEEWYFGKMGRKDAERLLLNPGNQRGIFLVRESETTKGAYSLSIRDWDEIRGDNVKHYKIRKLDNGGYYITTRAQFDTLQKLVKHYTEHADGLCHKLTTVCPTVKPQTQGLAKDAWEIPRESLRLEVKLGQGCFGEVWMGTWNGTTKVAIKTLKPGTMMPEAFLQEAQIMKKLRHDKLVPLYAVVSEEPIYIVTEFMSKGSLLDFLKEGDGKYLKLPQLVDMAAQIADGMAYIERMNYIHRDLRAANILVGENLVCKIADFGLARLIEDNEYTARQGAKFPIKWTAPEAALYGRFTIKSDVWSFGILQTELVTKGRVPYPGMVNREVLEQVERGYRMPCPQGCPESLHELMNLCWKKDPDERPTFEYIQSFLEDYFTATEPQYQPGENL
UniProt P43403: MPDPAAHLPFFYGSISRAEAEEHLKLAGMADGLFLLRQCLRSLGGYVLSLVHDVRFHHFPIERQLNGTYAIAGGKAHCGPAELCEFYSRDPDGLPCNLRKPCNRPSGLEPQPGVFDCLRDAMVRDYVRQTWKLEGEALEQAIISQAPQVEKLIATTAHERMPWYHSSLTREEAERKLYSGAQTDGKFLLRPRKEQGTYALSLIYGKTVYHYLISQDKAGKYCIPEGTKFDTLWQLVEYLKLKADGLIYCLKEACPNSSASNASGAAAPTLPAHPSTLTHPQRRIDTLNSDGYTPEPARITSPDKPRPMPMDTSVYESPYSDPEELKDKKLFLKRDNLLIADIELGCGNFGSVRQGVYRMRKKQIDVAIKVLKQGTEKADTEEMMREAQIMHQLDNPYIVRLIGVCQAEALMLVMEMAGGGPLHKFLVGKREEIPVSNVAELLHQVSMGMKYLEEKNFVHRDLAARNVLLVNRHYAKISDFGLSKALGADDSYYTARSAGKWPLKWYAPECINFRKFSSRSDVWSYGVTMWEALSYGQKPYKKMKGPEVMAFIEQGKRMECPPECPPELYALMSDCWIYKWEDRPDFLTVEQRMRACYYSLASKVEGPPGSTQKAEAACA
UniProt P00519, whole entry: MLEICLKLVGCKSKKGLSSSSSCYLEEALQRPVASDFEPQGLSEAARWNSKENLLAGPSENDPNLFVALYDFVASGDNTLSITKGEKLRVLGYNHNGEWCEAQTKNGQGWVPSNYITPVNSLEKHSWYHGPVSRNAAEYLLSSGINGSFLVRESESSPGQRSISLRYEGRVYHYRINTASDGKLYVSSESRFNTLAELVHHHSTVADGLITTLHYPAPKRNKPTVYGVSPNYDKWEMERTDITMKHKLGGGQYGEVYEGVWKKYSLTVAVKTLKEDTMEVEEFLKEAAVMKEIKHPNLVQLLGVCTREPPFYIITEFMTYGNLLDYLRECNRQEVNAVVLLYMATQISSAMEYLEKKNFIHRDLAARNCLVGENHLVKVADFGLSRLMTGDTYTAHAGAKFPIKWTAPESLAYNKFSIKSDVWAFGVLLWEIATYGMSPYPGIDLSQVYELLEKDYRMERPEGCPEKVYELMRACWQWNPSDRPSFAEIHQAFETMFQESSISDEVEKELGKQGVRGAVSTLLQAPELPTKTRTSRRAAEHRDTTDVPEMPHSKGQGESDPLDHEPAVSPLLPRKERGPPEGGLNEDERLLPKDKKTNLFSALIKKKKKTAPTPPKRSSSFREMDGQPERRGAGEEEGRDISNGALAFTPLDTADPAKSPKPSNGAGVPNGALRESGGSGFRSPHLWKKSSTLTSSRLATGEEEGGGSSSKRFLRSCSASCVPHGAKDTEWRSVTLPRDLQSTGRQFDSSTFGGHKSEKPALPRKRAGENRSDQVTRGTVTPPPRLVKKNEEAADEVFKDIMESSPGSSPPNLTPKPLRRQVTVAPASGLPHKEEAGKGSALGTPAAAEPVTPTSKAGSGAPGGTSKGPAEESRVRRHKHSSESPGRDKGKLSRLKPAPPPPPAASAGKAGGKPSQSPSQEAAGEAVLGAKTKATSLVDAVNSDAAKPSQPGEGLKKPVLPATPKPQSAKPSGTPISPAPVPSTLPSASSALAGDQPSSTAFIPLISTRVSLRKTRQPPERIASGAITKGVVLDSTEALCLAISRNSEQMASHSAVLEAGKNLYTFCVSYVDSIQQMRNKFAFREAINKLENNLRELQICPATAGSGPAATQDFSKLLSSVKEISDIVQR
UniProt P31749: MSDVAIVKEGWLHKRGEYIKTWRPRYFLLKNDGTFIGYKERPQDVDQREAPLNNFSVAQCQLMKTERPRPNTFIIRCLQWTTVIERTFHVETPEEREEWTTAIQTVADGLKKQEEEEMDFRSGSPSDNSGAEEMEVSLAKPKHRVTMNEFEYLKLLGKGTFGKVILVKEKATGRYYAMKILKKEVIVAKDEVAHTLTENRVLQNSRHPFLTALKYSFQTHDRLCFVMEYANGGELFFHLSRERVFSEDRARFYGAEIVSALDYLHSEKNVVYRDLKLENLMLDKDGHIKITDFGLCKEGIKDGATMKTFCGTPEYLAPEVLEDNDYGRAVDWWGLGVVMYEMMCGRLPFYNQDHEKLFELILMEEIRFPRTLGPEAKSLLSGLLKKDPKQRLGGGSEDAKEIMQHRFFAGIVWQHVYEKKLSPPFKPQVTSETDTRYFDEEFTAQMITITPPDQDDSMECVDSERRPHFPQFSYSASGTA

Tests used:
Conditions in all cases: K562; 2-18 h
[1] = target: STK38 (UniProt Q15208); test: kinase-Nluc reporter destabilization hit call (1 = scored as downregulated) (binary); higher = compound decreases kinase abundance
[2] = target: SYK (UniProt P43405); test: as above
[3] = target: TEC (UniProt P42680); test: as above
[4] = target: TYK2 (UniProt P29597); test: as above
[5] = target: ULK3 (UniProt Q6PHR2); test: as above
[6] = target: YES1 (UniProt P07947); test: as above
[7] = target: ZAK (UniProt Q9NYL2); test: as above
[8] = target: ZAP70 (UniProt P43403); test: as above
[9] = target: ABL1 (UniProt P00519); test: number of time points (of 5) at which kinase-Nluc abundance scored as decreased, DMSO-normalised (count); higher = more persistent destabilization
[10] = target: AKT1 (UniProt P31749); test: as above

| SMILES | kinase-Nluc reporter destabilization hit call [1] | kinase-Nluc reporter destabilization hit call [2] | kinase-Nluc reporter destabilization hit call [3] | kinase-Nluc reporter destabilization hit call [4] | kinase-Nluc reporter destabilization hit call [5] | kinase-Nluc reporter destabilization hit call [6] | kinase-Nluc reporter destabilization hit call [7] | kinase-Nluc reporter destabilization hit call [8] | number of time points [9] | number of time points [10] |
| --- | --- | --- | --- | --- | --- | --- | --- | --- | --- | --- |
| COc1cc2c(cc1OC)[C@@H]1C(=O)c3ccc4c(c3O[C@@H]1CO2)C=CC(C)(C)O4 [Deguelin] (10 µM) | inactive: 0 | inactive: 0 | inactive: 0 | inactive: 0 | inactive: 0 | inactive: 0 | inactive: 0 | inactive: 0 | 0 | 0 |
| CN(C)C(=O)c1cc2cnc(Nc3ccc(N4CCN(CCCCNC(=O)COc5cccc6c5C(=O)N(C5CCC(=O)NC5=O)C6=O)CC4)cn3)nc2n1C1CCCC1 (configuration not stated) (10 µM) | inactive: 0 | inactive: 0 | inactive: 0 | inactive: 0 | inactive: 0 | inactive: 0 | inactive: 0 | inactive: 0 | 0 | 0 |
| Nc1nc(Nc2ccc3c(c2)CC[C@@H](N2CCCC2)CC3)nn1-c1cc2c(nn1)-c1ccccc1CCC2 [Bemcentinib] (2.5 µM) | inactive: 0 | inactive: 0 | inactive: 0 | inactive: 0 | inactive: 0 | inactive: 0 | inactive: 0 | inactive: 0 | 0 | 0 |
| O=c1cc(-c2ccc(O[C@@H]3O[C@H](CO)[C@@H](O)[C@H](O)[C@H]3O)cc2)oc2cc(O)c([C@@H]3O[C@H](CO)[C@@H](O)[C@H](O)[C@H]3O[C@@H]3OC[C@H](O)[C@H](O)[C@H]3O)c(O)c12 [Vaccarin] (10 µM) | inactive: 0 | inactive: 0 | inactive: 0 | inactive: 0 | inactive: 0 | inactive: 0 | inactive: 0 | inactive: 0 | 0 | 0 |
| CC(ONC(=O)c1cc(C(F)(F)F)cc(C(F)(F)F)c1)C(=O)Nc1ccc(Cl)cc1 (configuration not stated) (2.5 µM) | inactive: 0 | inactive: 0 | inactive: 0 | active: 1 | inactive: 0 | inactive: 0 | inactive: 0 | inactive: 0 | 0 | 0 |
| CC(=O)Nc1nc(C)c(-c2cc(C)c3c(c2)CN([C@@H](C)C2CC2)C3=O)s1 (10 µM) | inactive: 0 | inactive: 0 | inactive: 0 | inactive: 0 | inactive: 0 | inactive: 0 | inactive: 0 | inactive: 0 | 0 | 0 |
| CN1CCN(c2ccc(-n3cc(-c4ccncc4OCC4CCNCC4)cn3)cc2)CC1 [MELK-8a (hydrochloride)] (10 µM) | inactive: 0 | inactive: 0 | inactive: 0 | inactive: 0 | inactive: 0 | inactive: 0 | inactive: 0 | inactive: 0 | 4 | 0 |
| CCOc1cc(N2CCC(O)CC2)ccc1Nc1ncc2c(n1)N(C1CCCC1)CCC(=O)N2C (2.5 µM) | inactive: 0 | inactive: 0 | inactive: 0 | inactive: 0 | inactive: 0 | inactive: 0 | inactive: 0 | inactive: 0 | 0 | 0 |
| NCCNS(=O)(=O)c1ccc(Cl)c2ccncc12 [CKI-7 (free base)] (10 µM) | inactive: 0 | inactive: 0 | inactive: 0 | inactive: 0 | inactive: 0 | inactive: 0 | inactive: 0 | inactive: 0 | 0 | 0 |
| Cc1ncsc1-c1ccc(CNC(=O)[C@@H]2C[C@@H](O)CN2C(=O)[C@@H](NC(=O)COCCOc2ccc(-c3cc(Nc4ccc(OC(F)(F)F)cc4)ncn3)cc2)C(C)(C)C)cc1 (2.5 µM) | inactive: 0 | inactive: 0 | inactive: 0 | inactive: 0 | inactive: 0 | inactive: 0 | inactive: 0 | inactive: 0 | 5 | 0 |
| N=C(NC(=N)N1CCCC1)Nc1ccc(OC(F)(F)F)cc1 (10 µM) | inactive: 0 | inactive: 0 | inactive: 0 | inactive: 0 | inactive: 0 | inactive: 0 | inactive: 0 | inactive: 0 | 0 | 0 |
| Fc1ccc(-c2nc3n(c2-c2ccncc2)CCS3)cc1 (10 µM) | inactive: 0 | inactive: 0 | inactive: 0 | inactive: 0 | inactive: 0 | inactive: 0 | inactive: 0 | inactive: 0 | 0 | 0 |
| CC(C)c1cc2c(c(O)c1O)[C@@]13CCCC(C)(C)[C@@H]1C[C@@H]2OC3=O [Carnosol] (2.5 µM) | inactive: 0 | inactive: 0 | inactive: 0 | inactive: 0 | inactive: 0 | inactive: 0 | inactive: 0 | inactive: 0 | 0 | 0 |
| CO[C@]1(C(=O)N[C@@H](C)c2ccc(-n3cc(F)cn3)nc2)CC[C@H](c2nc(C)cc(Nc3cc(C)[nH]n3)n2)CC1 [Pralsetinib] (10 µM) | inactive: 0 | inactive: 0 | inactive: 0 | inactive: 0 | inactive: 0 | inactive: 0 | inactive: 0 | inactive: 0 | 0 | 0 |
| COCCOc1cnc2ccn([C@H](C)c3nnc4c(F)cc(-c5cnn(C)c5)cn34)c(=O)c2c1 (10 µM) | inactive: 0 | inactive: 0 | inactive: 0 | inactive: 0 | inactive: 0 | inactive: 0 | inactive: 0 | inactive: 0 | 0 | 0 |
| Cc1nc2c(NCc3cccc(S(C)(=O)=O)c3)nccn2c1-c1ccc(O)c(F)c1 (10 µM) | inactive: 0 | inactive: 0 | inactive: 0 | inactive: 0 | inactive: 0 | inactive: 0 | inactive: 0 | inactive: 0 | 0 | 0 |
| COc1cc(Nc2ccnc3ccc(Br)cc23)cc(OC)c1OC (2.5 µM) | inactive: 0 | inactive: 0 | inactive: 0 | inactive: 0 | inactive: 0 | inactive: 0 | inactive: 0 | inactive: 0 | 2 | 0 |
| NC(=O)c1ccccc1Nc1ccnc(Nc2cccc(O)c2)n1 (10 µM) | inactive: 0 | inactive: 0 | inactive: 0 | inactive: 0 | inactive: 0 | inactive: 0 | inactive: 0 | inactive: 0 | 5 | 0 |
| CC1(C)C=Cc2c(ccc(C(=O)/C=C/c3ccc(O)cc3)c2O)O1 [4-Hydroxylonchocarpin] (10 µM) | inactive: 0 | inactive: 0 | inactive: 0 | inactive: 0 | inactive: 0 | inactive: 0 | inactive: 0 | inactive: 0 | 0 | 0 |
| Cn1cc(-c2nc(N[C@@H]3CCCC[C@@H]3N)c(F)c3c2C(=O)NC3)cn1 [TAK-659 (hydrochloride)] (2 µM) | inactive: 0 |  | inactive: 0 | inactive: 0 | inactive: 0 | inactive: 0 | inactive: 0 | inactive: 0 | 0 | 0 |
| COc1cccc(-c2cc(=O)c3ccccc3o2)c1N (10 µM) | inactive: 0 | inactive: 0 | inactive: 0 | inactive: 0 | inactive: 0 | inactive: 0 | inactive: 0 | inactive: 0 | 0 | 0 |
| CNCc1cc(Oc2ccc3c(ccn3C(=O)Nc3cc(C(F)(F)F)n(C)n3)c2)ncn1 [Acrizanib] (10 µM) | inactive: 0 | inactive: 0 | inactive: 0 | inactive: 0 | inactive: 0 | inactive: 0 | inactive: 0 | inactive: 0 | 0 | 0 |
| Cc1cnc(Nc2ccc(F)cc2Cl)nc1-c1c[nH]c(C(=O)N[C@H](CO)c2cccc(Cl)c2)c1 (10 µM) | inactive: 0 |  | inactive: 0 | inactive: 0 | inactive: 0 | inactive: 0 | inactive: 0 | inactive: 0 | 0 | 0 |
| O=C(Nc1ccnc(NC(=O)C2CC2)c1)c1c(Cl)cccc1Cl (10 µM) | inactive: 0 | inactive: 0 | inactive: 0 | inactive: 0 | inactive: 0 | inactive: 0 | inactive: 0 | inactive: 0 | 0 | 0 |
| Fc1ccc(Cl)cc1-c1nc(Nc2ccncc2)c2nccnc2n1 (10 µM) | inactive: 0 | inactive: 0 | inactive: 0 | inactive: 0 | inactive: 0 | inactive: 0 | inactive: 0 | inactive: 0 | 0 | 0 |
| CCOC(=O)c1c(C)[nH]c(C=C2C(=O)Nc3ccccc32)c1C (10 µM) |  | inactive: 0 | inactive: 0 | inactive: 0 | inactive: 0 | inactive: 0 | inactive: 0 | inactive: 0 | 0 | 0 |

Taken from above (2 entries):

| SMILES | kinase-Nluc reporter destabilization hit call [1] | kinase-Nluc reporter destabilization hit call [2] | kinase-Nluc reporter destabilization hit call [3] | kinase-Nluc reporter destabilization hit call [4] | kinase-Nluc reporter destabilization hit call [5] | kinase-Nluc reporter destabilization hit call [6] | kinase-Nluc reporter destabilization hit call [7] | kinase-Nluc reporter destabilization hit call [8] | number of time points [9] | number of time points [10] |
| --- | --- | --- | --- | --- | --- | --- | --- | --- | --- | --- |
| NCCNS(=O)(=O)c1ccc(Cl)c2ccncc12 [CKI-7 (free base)] (10 µM) | inactive: 0 | inactive: 0 | inactive: 0 | inactive: 0 | inactive: 0 | inactive: 0 | inactive: 0 | inactive: 0 | 0 | 0 |
| Cc1ncsc1-c1ccc(CNC(=O)[C@@H]2C[C@@H](O)CN2C(=O)[C@@H](NC(=O)COCCOc2ccc(-c3cc(Nc4ccc(OC(F)(F)F)cc4)ncn3)cc2)C(C)(C)C)cc1 (2.5 µM) | inactive: 0 | inactive: 0 | inactive: 0 | inactive: 0 | inactive: 0 | inactive: 0 | inactive: 0 | inactive: 0 | 5 | 0 |
